According to the supplement of paper PMC10849652:
Some of the results follow.

The chains behind the UniProt entries cited, without tags or fusion partners. Where a name states a change or a piece, a line headed by the entry shows the natural chain unless it says otherwise.
UniProt P49448: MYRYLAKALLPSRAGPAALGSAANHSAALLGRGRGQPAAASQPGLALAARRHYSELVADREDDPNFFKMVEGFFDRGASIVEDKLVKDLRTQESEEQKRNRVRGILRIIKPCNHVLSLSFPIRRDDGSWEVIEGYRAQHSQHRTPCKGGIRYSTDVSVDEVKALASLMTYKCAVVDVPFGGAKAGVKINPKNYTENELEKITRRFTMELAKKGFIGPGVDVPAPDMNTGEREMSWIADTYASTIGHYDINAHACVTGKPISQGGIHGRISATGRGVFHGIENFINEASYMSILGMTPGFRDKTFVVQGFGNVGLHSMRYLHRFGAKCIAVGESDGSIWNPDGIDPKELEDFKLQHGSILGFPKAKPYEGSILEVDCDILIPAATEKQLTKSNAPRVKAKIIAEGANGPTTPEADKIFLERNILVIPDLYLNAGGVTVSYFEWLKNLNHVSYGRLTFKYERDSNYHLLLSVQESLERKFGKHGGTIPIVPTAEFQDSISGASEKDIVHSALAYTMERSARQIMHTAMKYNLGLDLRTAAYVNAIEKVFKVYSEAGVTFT
UniProt Q8TDQ7: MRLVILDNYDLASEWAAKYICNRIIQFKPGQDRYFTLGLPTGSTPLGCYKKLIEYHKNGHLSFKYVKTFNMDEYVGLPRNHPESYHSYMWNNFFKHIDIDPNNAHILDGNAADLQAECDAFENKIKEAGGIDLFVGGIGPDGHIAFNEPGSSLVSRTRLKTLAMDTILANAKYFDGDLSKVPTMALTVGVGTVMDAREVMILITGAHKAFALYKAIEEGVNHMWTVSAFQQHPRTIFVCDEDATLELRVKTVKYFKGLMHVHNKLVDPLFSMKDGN
UniProt Q9UJ14: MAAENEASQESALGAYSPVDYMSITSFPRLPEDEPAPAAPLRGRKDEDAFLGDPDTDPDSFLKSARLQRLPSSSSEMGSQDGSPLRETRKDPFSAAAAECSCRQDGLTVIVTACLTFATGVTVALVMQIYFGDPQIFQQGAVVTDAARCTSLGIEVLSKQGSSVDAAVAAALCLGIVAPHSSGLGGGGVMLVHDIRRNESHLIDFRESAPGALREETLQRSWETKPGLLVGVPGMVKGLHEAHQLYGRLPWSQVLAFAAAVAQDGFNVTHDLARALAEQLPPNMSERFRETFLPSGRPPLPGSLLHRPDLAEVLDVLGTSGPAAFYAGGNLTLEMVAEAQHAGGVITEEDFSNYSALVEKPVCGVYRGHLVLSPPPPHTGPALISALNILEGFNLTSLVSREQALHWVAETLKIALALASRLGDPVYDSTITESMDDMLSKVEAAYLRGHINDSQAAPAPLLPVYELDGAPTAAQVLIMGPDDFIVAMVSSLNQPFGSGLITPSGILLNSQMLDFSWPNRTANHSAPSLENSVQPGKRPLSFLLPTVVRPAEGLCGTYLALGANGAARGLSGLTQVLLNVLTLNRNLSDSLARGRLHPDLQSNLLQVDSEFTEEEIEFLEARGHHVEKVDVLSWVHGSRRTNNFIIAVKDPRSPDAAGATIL
UniProt Q13227: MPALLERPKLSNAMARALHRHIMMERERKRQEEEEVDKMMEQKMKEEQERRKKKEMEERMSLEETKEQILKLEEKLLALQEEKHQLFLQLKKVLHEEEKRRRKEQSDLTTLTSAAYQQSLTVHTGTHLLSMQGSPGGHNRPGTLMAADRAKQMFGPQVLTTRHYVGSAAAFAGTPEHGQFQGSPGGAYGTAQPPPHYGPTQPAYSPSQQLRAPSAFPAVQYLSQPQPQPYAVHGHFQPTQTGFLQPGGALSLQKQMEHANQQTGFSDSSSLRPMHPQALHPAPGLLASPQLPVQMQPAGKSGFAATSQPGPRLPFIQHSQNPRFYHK
UniProt Q08379: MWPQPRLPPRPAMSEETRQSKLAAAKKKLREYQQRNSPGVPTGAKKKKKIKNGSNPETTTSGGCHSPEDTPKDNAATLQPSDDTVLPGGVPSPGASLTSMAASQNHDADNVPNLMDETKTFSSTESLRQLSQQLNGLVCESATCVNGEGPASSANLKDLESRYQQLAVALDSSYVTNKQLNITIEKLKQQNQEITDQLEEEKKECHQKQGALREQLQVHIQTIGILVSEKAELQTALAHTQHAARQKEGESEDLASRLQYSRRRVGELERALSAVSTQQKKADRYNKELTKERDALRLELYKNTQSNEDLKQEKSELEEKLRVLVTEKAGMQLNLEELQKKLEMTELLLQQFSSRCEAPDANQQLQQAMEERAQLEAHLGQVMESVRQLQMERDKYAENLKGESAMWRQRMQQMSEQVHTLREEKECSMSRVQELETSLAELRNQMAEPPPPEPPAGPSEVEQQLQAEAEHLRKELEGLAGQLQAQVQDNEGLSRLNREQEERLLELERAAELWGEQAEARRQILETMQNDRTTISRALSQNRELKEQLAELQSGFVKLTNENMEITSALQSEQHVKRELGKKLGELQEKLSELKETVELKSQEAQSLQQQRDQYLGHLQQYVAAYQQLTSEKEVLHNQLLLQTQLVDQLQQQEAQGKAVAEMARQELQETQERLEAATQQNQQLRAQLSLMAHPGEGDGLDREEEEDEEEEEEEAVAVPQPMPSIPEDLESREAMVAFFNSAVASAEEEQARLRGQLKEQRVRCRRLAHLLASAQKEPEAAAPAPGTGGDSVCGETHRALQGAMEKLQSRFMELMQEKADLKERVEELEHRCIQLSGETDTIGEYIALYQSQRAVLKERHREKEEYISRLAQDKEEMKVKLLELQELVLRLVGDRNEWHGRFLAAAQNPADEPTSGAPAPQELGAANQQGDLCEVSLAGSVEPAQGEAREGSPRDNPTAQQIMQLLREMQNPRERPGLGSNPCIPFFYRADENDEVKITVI
UniProt B7ZAQ6: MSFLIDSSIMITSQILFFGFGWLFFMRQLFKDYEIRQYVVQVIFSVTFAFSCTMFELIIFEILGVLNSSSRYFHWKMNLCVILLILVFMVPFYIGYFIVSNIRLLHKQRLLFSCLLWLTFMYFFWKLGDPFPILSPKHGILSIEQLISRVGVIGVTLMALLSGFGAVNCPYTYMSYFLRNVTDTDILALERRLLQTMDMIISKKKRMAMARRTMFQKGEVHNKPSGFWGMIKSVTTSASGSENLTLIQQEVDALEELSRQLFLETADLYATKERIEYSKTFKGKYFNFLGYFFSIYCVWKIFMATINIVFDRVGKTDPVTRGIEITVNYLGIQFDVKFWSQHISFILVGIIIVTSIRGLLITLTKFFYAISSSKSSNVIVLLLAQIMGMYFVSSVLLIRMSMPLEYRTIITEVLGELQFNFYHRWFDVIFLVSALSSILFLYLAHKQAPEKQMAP
UniProt Q9Y3E0: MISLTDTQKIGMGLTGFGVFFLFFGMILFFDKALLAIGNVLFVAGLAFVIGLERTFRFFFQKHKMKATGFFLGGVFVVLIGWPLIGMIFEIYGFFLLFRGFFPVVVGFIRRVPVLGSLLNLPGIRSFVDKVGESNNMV
UniProt O14653: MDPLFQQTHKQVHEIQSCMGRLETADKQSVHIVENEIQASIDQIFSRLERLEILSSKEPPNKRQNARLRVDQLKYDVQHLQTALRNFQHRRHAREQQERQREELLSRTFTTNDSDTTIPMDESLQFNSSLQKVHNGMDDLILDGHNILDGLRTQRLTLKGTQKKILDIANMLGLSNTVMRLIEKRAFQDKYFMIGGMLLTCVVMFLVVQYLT
UniProt P36915, whole entry, looked up: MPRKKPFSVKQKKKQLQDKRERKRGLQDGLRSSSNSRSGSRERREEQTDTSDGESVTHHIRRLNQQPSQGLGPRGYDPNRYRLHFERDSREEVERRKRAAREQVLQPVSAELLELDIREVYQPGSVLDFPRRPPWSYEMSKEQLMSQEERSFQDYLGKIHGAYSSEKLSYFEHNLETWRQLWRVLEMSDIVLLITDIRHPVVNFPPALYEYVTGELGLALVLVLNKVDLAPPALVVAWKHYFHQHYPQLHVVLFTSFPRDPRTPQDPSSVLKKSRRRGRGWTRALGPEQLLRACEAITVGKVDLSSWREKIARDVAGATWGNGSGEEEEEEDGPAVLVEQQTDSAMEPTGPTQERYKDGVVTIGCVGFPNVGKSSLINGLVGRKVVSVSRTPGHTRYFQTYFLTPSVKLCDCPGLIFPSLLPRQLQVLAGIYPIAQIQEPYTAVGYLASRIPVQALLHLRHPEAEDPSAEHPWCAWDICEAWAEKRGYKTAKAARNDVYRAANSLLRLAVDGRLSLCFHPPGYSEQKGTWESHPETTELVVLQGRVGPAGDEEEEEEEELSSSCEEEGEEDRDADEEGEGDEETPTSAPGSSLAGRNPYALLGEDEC
UniProt Q9H3K2: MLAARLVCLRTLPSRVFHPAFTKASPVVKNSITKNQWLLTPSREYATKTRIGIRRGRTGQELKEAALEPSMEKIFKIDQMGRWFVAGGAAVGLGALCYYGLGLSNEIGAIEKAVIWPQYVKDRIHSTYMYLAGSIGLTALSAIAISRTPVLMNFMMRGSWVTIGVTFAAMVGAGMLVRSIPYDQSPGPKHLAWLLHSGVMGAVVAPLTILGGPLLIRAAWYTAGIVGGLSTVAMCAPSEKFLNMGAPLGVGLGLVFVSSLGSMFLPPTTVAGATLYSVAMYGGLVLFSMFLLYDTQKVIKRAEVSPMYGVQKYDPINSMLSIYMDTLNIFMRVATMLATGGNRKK
UniProt Q7Z2K8: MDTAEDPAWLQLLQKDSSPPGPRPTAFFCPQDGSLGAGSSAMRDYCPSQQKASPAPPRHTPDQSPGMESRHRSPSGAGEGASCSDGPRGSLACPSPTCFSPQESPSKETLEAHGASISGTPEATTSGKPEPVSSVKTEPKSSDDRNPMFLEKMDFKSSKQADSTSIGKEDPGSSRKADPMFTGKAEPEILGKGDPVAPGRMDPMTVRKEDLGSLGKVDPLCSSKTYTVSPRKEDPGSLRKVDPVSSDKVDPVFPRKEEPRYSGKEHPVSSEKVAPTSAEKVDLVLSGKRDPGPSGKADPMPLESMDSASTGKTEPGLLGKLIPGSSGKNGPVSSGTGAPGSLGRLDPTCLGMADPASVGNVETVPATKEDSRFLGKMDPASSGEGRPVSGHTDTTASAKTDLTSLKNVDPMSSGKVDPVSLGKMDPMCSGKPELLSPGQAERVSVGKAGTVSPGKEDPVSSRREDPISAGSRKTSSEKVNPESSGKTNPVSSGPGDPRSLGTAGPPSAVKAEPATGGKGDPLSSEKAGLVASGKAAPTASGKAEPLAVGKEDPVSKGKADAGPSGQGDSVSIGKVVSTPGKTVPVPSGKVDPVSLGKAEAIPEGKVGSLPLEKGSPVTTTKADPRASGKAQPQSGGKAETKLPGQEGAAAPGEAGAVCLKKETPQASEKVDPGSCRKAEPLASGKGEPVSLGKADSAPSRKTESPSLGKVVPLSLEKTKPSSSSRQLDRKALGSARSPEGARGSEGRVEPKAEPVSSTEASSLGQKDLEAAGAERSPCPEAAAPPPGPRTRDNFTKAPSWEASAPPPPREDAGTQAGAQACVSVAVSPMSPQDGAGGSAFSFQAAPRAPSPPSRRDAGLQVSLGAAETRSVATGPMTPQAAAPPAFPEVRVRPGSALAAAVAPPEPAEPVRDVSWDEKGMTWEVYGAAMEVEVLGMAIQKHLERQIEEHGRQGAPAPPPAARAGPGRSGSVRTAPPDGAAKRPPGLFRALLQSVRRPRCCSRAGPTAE
UniProt Q9H4A5: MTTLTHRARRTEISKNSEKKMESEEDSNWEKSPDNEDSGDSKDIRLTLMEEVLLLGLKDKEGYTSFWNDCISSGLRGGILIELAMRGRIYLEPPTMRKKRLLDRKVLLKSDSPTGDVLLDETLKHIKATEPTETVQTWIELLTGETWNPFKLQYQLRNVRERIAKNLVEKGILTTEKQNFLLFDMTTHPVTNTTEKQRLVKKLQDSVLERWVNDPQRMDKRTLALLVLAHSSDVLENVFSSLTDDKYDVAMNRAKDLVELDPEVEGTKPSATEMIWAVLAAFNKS
UniProt Q9HCN4, whole entry, looked up: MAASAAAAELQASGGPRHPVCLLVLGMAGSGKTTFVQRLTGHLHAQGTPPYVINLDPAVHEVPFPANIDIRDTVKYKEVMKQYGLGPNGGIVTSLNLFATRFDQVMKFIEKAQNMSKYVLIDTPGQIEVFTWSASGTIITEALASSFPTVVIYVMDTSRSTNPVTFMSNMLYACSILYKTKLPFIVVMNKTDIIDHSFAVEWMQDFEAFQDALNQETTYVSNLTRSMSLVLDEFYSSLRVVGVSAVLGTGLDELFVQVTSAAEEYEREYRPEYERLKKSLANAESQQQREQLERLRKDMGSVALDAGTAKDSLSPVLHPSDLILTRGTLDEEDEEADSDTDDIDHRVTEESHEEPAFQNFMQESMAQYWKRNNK
UniProt P62879, whole entry, looked up: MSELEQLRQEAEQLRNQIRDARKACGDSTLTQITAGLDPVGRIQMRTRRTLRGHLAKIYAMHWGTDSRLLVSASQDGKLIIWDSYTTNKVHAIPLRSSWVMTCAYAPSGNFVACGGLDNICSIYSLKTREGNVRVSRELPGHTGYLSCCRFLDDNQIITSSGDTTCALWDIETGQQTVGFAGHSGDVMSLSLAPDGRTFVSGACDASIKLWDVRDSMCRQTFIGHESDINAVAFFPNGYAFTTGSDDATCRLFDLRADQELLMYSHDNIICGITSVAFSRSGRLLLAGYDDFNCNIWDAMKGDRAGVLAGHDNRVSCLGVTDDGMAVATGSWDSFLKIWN

Experiments:
Test in all cases: log2 fold change, soluble protein after heating vs DMSO (PISA); higher = thermal stabilisation; K562 lysate, 10 uM; active = over 0.2 and 3.5 SD of the protein, either way, in both replicates (recomputed)
vemurafenib = compound: CCCS(=O)(=O)Nc1ccc(F)c(C(=O)c2c[nH]c3ncc(-c4ccc(Cl)cc4)cc23)c1F [vemurafenib]
In short: (§1)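 K562 pellets were dounce-homogenised in PBS pH 7.4 with 1 mM MgCl2, and the crude extract at 1 mg/mL protein was treated with 10 μM compound for 30 min. Aliquots were heated for 3 min across 48°C-58°C, pooled, and brought to 0.5% NP-40 at 4°C; soluble protein was the supernatant after 21,000xg for 90 min. Soluble protein was quantified by TMTpro 16plex LC-MS/MS with channel sums equalised, and reported as log2 fold change in thermal stability against DMSO controls, with values from duplicates.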

[1] = compound: CCCS(=O)(=O)Nc1ccc(F)c(C(=O)c2c[nH]c3ncc(Cl)cc23)c1F
In short: as §1

barasertib = compound: CCN(CCCOc1ccc2c(Nc3cc(CC(=O)Nc4cccc(F)c4)[nH]n3)ncnc2c1)CCOP(=O)(O)O [barasertib]
In short: as §1

[2] = compound: CC[C@@H]1C(=O)N(C)c2cnc(Nc3ccc(C(=O)NC4CCN(C)CC4)cc3OC)nc2N1C1CCCC1
In short: as §1

volasertib = compound: CC[C@@H]1C(=O)N(C)c2cnc(Nc3ccc(C(=O)N[C@H]4CC[C@H](N5CCN(CC6CC6)CC5)CC4)cc3OC)nc2N1C(C)C [volasertib]
In short: as §1

[3] = compound: CCn1c(C(=O)N(C2CC2)C2CC2)cc2c3c(ncn3C)c(Nc3cc(C)n(C)n3)nc21
In short: as §1

[4] = compound: CCn1cc(-c2ccnc3[nH]c(-c4cccc(CN(C)C)c4)cc23)c(-c2ccc(NC(=O)N(C)C)cc2)n1
In short: as §1

[5] = compound: CN1CCC(CNc2ccc3ncc(-c4cccc(OC(F)(F)F)c4)n3n2)CC1
In short: as §1

saracatinib = compound: CN1CCN(CCOc2cc(OC3CCOCC3)c3c(Nc4c(Cl)ccc5c4OCO5)ncnc3c2)CC1 [saracatinib]
In short: as §1

sotrastaurin = compound: CN1CCN(c2nc(C3=C(c4c[nH]c5ccccc45)C(=O)NC3=O)c3ccccc3n2)CC1 [sotrastaurin]
In short: as §1

Measured: log2 fold change

GPHN isoform 2 (UniProt Q9NQX3)
inactive: vemurafenib -0.011 | [1] 0.014 | barasertib -0.008 | [2] 0.022 | volasertib 0.014 | [3] 0.011 | [4] -0.02 | [5] 0.054 | saracatinib 0.011 | sotrastaurin 0.008

GIT2 (UniProt Q14161)
inactive: vemurafenib 0.047 | [1] 0.048 | barasertib 0.043 | [2] -0.267 | volasertib -0.012 | [3] 0.053 | [4] -0.042 | [5] -0.009 | saracatinib -0.032 | sotrastaurin 0.042

GLUD2 (UniProt P49448)
inactive: vemurafenib 0.177 | [1] -0.042 | barasertib -0.069 | [2] 0.02 | volasertib -0.145 | [3] -0.031 | [4] -0.024 | [5] 0.046 | saracatinib 0.007 | sotrastaurin -0.039

GLS isoform 3 (UniProt O94925)
inactive: vemurafenib 0.019 | [1] 0.073 | barasertib 0.065 | [2] -0.051 | volasertib -0.049 | [3] -0.01 | [4] -0.05 | [5] -0.031 | saracatinib 0.018 | sotrastaurin 0.039

GMIP (UniProt Q9P107)
inactive: vemurafenib 0.041 | [1] 0.048 | barasertib -0.024 | [2] -0.01 | volasertib 0 | [3] -0.005 | [4] -0.027 | [5] -0.004 | saracatinib 0.007 | sotrastaurin 0.034

GNPDA2 (UniProt Q8TDQ7)
inactive: vemurafenib 0.007 | [1] 0.021 | barasertib 0.029 | [2] 0.033 | volasertib 0.044 | [3] -0.036 | [4] -0.061 | [5] 0.007 | saracatinib 0.03 | sotrastaurin -0.009

GPATCH4 isoform 3 (UniProt Q5T3I0)
inactive: vemurafenib -0.024 | [1] 0.046 | barasertib 0.042 | [2] -0.05 | volasertib -0.02 | [3] 0 | [4] 0.156 | [5] -0.11 | saracatinib 0.014 | sotrastaurin -0.02

GGCX (UniProt P38435)
inactive: vemurafenib -0.151 | [1] 0 | barasertib 0.099 | [2] -0.014 | volasertib -0.044 | [3] -0.146 | [4] -0.036 | [5] -0.145 | saracatinib 0.011 | sotrastaurin 0.059

GOLGA1 (UniProt Q92805)
inactive: vemurafenib 0.081 | [1] 0.086 | barasertib 0 | [2] 0.007 | volasertib 0.121 | [3] -0.061 | [4] -0.019 | [5] -0.04 | saracatinib -0.031 | sotrastaurin 0.071

GLUL (UniProt P15104)
inactive: vemurafenib -0.055 | [1] 0.012 | barasertib -0.026 | [2] -0.028 | volasertib -0.024 | [3] 0.021 | [4] 0.326 | [5] -0.058 | saracatinib -0.004 | sotrastaurin 0.016

Random excerpt: 2 records from the list.
GIT2 (UniProt Q14161)
inactive: vemurafenib 0.047 | [1] 0.048 | barasertib 0.043 | [2] -0.267 | volasertib -0.012 | [3] 0.053 | [4] -0.042 | [5] -0.009 | saracatinib -0.032 | sotrastaurin 0.042

GLS isoform 3 (UniProt O94925)
inactive: vemurafenib 0.019 | [1] 0.073 | barasertib 0.065 | [2] -0.051 | volasertib -0.049 | [3] -0.01 | [4] -0.05 | [5] -0.031 | saracatinib 0.018 | sotrastaurin 0.039

Additional entries:

GGT7 (UniProt Q9UJ14)
inactive: vemurafenib 0.003 | [1] 0.029 | barasertib 0.007 | [2] 0.037 | volasertib -0.014 | [3] -0.014 | [4] -0.003 | [5] 0.027 | saracatinib 0.097 | sotrastaurin 0.032

GLTP (UniProt Q9NZD2)
inactive: vemurafenib 0.028 | [1] -0.039 | barasertib 0.165 | [2] 0.129 | volasertib 0.065 | [3] 0.067 | [4] 0.097 | [5] -0.245 | saracatinib 0.039 | sotrastaurin 0.095

GPS2 (UniProt Q13227)
inactive: vemurafenib -0.09 | [1] 0.033 | barasertib -0.055 | [2] 0.064 | volasertib 0.085 | [3] 0.004 | [4] 0.052 | [5] 0.025 | saracatinib 0.093 | sotrastaurin 0.056

GOPC (UniProt Q9HD26)
inactive: vemurafenib 0.026 | [1] 0.002 | barasertib 0.043 | [2] -0.063 | volasertib -0.031 | [3] -0.004 | [4] -0.06 | [5] -0.015 | saracatinib 0.025 | sotrastaurin -0.014

GOLGA2 (UniProt Q08379)
inactive: vemurafenib 0.015 | [1] -0.006 | barasertib 0.046 | [2] 0.002 | volasertib -0.008 | [3] 0.017 | [4] -0.03 | [5] -0.069 | saracatinib 0.019 | sotrastaurin -0.021

GPR89A (UniProt B7ZAQ6)
inactive: vemurafenib -0.257 | [1] 0.011 | barasertib 0.018 | [2] -0.107 | volasertib 0.004 | [3] 0.017 | [4] -0.09 | [5] -0.096 | saracatinib 0.019 | sotrastaurin -0.037

GNL3 (UniProt Q9BVP2)
inactive: vemurafenib 0.051 | [1] 0.041 | barasertib 0.032 | [2] -0.078 | volasertib 0.004 | [3] -0.07 | [4] 0.129 | [5] -0.066 | saracatinib 0.004 | sotrastaurin 0.013

GOLT1B (UniProt Q9Y3E0)
inactive: vemurafenib 0.128 | [1] 0.031 | barasertib 0.031 | [2] -0.037 | volasertib 0.029 | [3] 0.047 | [4] 0.049 | [5] -0.023 | saracatinib -0.008 | sotrastaurin 0.006

GLE1 (UniProt Q53GS7)
inactive: vemurafenib -0.035 | [1] -0.199 | barasertib 0.107 | [2] -0.002 | volasertib 0.048 | [3] 0.153 | [4] 0.155 | [5] -0.365 | saracatinib 0.019 | sotrastaurin 0.083

GOSR2 isoform 2 (UniProt O14653)
inactive: vemurafenib 0.014 | [1] 0.055 | barasertib -0.028 | [2] 0.021 | volasertib 0 | [3] 0.047 | [4] 0.132 | [5] -0.123 | saracatinib 0.008 | sotrastaurin -0.018

GNL1 (UniProt P36915)
inactive: vemurafenib 0.009 | [1] 0.034 | barasertib 0.002 | [2] -0.041 | volasertib -0.046 | [3] 0.014 | [4] 0.028 | [5] -0.041 | saracatinib 0.007 | sotrastaurin 0.007

GHITM (UniProt Q9H3K2)
inactive: vemurafenib -0.006 | [1] 0.038 | barasertib 0.015 | [2] 0.04 | volasertib 0.049 | [3] -0.011 | [4] 0.008 | [5] 0.004 | saracatinib -0.004 | sotrastaurin -0.015

GPRIN1 (UniProt Q7Z2K8)
inactive: vemurafenib 0.006 | [1] -0.017 | barasertib 0.038 | [2] 0.064 | volasertib -0.035 | [3] 0.002 | [4] 0.103 | [5] 0.009 | saracatinib 0.011 | sotrastaurin 0.014

GOLPH3L (UniProt Q9H4A5)
inactive: vemurafenib 0.068 | [1] 0.025 | barasertib 0.033 | [2] -0.055 | volasertib -0.023 | [3] 0.048 | [4] -0.034 | [5] -0.08 | saracatinib 0.046 | sotrastaurin -0.092

GPN1 isoform 5 (UniProt Q9HCN4)
inactive: vemurafenib -0.023 | [1] 0.03 | barasertib -0.024 | [2] 0.035 | volasertib -0.024 | [3] -0.023 | [4] -0.028 | [5] 0.05 | saracatinib -0.035 | sotrastaurin -0.04

GNB2 (UniProt P62879)
inactive: vemurafenib 0.02 | [1] -0.007 | barasertib 0.011 | [2] -0.052 | volasertib 0.021 | [3] 0.014 | [4] -0.013 | [5] 0.049 | saracatinib -0.027 | sotrastaurin -0.02

GNPTG (UniProt Q9UJJ9)
inactive: vemurafenib 0.061 | [1] 0.035 | barasertib -0.052 | [2] 0.039 | volasertib 0.042 | [3] -0.006 | [4] 0.009 | [5] 0.015 | saracatinib 0.113 | sotrastaurin 0.049
